For 31 compounds, survivor count and T/C results are on record in PubChem BioAssay AID248 (DTP/NCI, 2004).

The subject of the test is L1210 leukemia ip in BDF1 mice, survival T/C. The test can be described thus: NCI In Vivo Anticancer Drug Screen. Data for tumor model L1210 Leukemia (intraperitoneal) in B6D2F1 (BDF1) mice. To be noted: T/C endpoint: mean survival time, higher T/C = longer survival.
Where [1] appears, read: dose: 400.0 mg/kg/injection, schedule: Q04DX003 (ip), vehicle: saline with Tween-80.
[2] abbreviates: dose: 400.0 mg/kg/injection, schedule: Q04DX003 (ip), vehicle: Klucel (hydroxypropylcellulose) (HPC).
The mark [3] stands for this setting: dose: 200.0 mg/kg/injection, schedule: Q01DX009 (ip), vehicle: saline with Tween-80.
Where [4] appears, read: dose: 300.0 mg/kg/injection, schedule: Q01DX001 (ip), vehicle: saline.
Where [5] appears, read: dose: 400.0 mg/kg/injection, schedule: Q01DX009 (ip), vehicle: saline with Tween-80.
The mark [6] stands for this setting: dose: 400.0 mg/kg/injection, schedule: Q04DX002 (ip), vehicle: Klucel (hydroxypropylcellulose) (HPC).
Setting [7] is: dose: 200.0 mg/kg/injection, schedule: Q01DX009 (ip), vehicle: Klucel (hydroxypropylcellulose) (HPC).
[8] abbreviates: dose: 400.0 mg/kg/injection, schedule: Q01DX009 (ip), vehicle: Klucel (hydroxypropylcellulose) (HPC).
The mark [9] stands for this setting: dose: 400.0 mg/kg/injection, schedule: Q04DX003 (ip), vehicle: saline.
Setting [10] is: dose: 100.0 mg/kg/injection, schedule: Q04DX003 (ip), vehicle: saline.

Molecules are shown by their SMILES. The list shows only some results of the screen, not a fair sample: it is rich in T/C values a quarter to a half above the control, in often repeated tests (any T/C) and in doses without a T/C. Further doses and runs are listed elsewhere. T/C is the treated group as % of the vehicle group. Some doses have a count of surviving animals in place of a T/C: the source files T/C as zero there, which appears to mark a toxic dose or a test without result, not a measured value. Some survivor counts are full or nearly so, which does not show that the dose was tolerated: survival well below the control is almost never listed, so the zero probably covers shortened survival too. Counts of survivors are from the toxicity check (mostly the fifth day) where no day follows; animals may have died later. Schedules are NCI's codes, taken here to give the interval after Q, in days (D) or hours (H), and the number of doses after X. Some schedules carry Z or #; the key to these is not given. Some structures stand for samples that the source files as different forms (salt, stereo form or complex); doses refer to the form tested. Where survival is the endpoint, this PubChem deposit counts one and a half times the control or more as active, and values a quarter to a half above the control carry no call in these data; other NCI protocols may use other cut-offs.

With `CC(=O)Nc1ncnc2c1c(C(N)=O)cn2C1OC(COC(C)=O)C(OC(C)=O)C1OC(C)=O` (configuration not stated), the survivor count was 0 of 6 (dose: 200.0 mg/kg/injection, schedule: Q01DX001 (ip), vehicle: water) and 1 of 6 (dose: 400.0 mg/kg/injection, schedule: Q01DX001 (ip), vehicle: water).

For the compound `Cc1cnc(SCc2ccc(F)cc2)nc1N(C)C`, where the note is “dose: 200.0 mg/kg/injection, schedule: Q01DX Z (ip), vehicle: methylcellulose (MC)”, the survivor count is reported as 1 of 6.

With `CCCCCCNC(C)=O`, the survivor count under setting [1] is listed as 0 of 6.

For `c1ccc2c(Nc3ccc(C4=NCCN4)cc3)nnc(Nc3ccc(C4=NCCN4)cc3)c2c1`, the T/C (dose: 125.0 mg/kg/injection, schedule: Q01DX Z (ip), vehicle: carboxymethylcellulose (CMC)) is 129 % of control. For the same compound, the survivor count (dose: 250.0 mg/kg/injection, schedule: Q01DX Z (oral), vehicle: water) was 3 of 6.

For `O=C(Nc1cccc(C(=O)Nc2cc(C3=NCCN3)cc(C3=NCCN3)c2)c1)Nc1cccc(C(=O)Nc2cc(C3=NCCN3)cc(C3=NCCN3)c2)c1`, for the setting “dose: 120.0 mg/kg/injection, schedule: Q01DX Z (ip), vehicle: methylcellulose (MC)”, the survivor count is recorded as 2 of 6.

Turning to `CN(C)CC1C2C=CC(C3CC23)C1CN(C)C` (configuration not stated), under setting [2], the survivor count was 0 of 6.

Turning to `Cc1cc(CC(=S)[S-])[n+](C)c(CC(=S)S)c1`, under “dose: 350.0 mg/kg/injection, schedule: Q01DX009 (ip), vehicle: Klucel (hydroxypropylcellulose) (HPC)”, the survivor count is 2 of 6.

Turning to `CC(=O)OC1CCC2(C)C(=CC=C3C2CCC2(C)C3CC(OC(C)=O)C2C(C)C2CCC(C)CN2C(C)=O)C1` (configuration not stated), under setting [3], the survivor count was 3 of 3.

With `C=CCC1(C(=C)C)C(=O)NC(=S)NC1=O`, the survivor count is on record as 2 of 6 (dose: 300.0 mg/kg/injection, schedule: Q01DX001 (ip), vehicle: carboxymethylcellulose (CMC)) and 3 of 6 under setting [4].

In the case of `C[CH2][Pb]([Cl])([CH2]C)[CH2]C`, the survivor count is listed as 0 of 6 (dose: 12.5 mg/kg/injection, schedule: Q01DX009 (ip), vehicle: other); 0 of 6 (dose: 25.0 mg/kg/injection, schedule: Q01DX009 (ip), vehicle: other); 0 of 6 (dose: 50.0 mg/kg/injection, schedule: Q01DX009 (ip), vehicle: other); 0 of 6 (dose: 100.0 mg/kg/injection, schedule: Q01DX009 (ip), vehicle: other); 0 of 6 (dose: 200.0 mg/kg/injection, schedule: Q01DX009 (ip), vehicle: other); 0 of 6 (dose: 400.0 mg/kg/injection, schedule: Q01DX009 (ip), vehicle: other).

Take `CC(=O)C1C(=O)OC(C)=C(C(=O)O)C1=O` (configuration not stated): the survivor count runs as follows: under setting [3], 2 of 6; under setting [1], 0 of 6.

For the compound `Cc1cccc(C(=O)NN)n1`, the survivor count is reported as 2 of 6 (dose: 50.0 mg/kg/injection, schedule: Q01DX009 (ip), vehicle: saline); 0 of 6 (dose: 100.0 mg/kg/injection, schedule: Q01DX009 (ip), vehicle: saline); 0 of 6 (dose: 200.0 mg/kg/injection, schedule: Q01DX009 (ip), vehicle: saline); 0 of 6 (dose: 400.0 mg/kg/injection, schedule: Q01DX009 (ip), vehicle: saline).

With `CC1(C(=O)O)OCCO1`, the survivor count under setting [5] is listed as 3 of 6.

Take `c1ccc(N=C(Nc2ccccc2)c2ccccc2)cc1`: the survivor count under setting [6] is reported as 2 of 3.

In the case of `O=C(N/N=C/c1cccc2ccccc12)c1cccnc1`, the survivor count by setting is: under setting [7], 6 of 6; under setting [8], 1 of 6.

With `Cc1ccccc1[P+](Cc1ccccc1)(c1ccccc1)c1ccccc1C`, the survivor count runs as follows: (dose: 30.0 mg/kg/injection, schedule: Q01DX001 (ip), vehicle: saline) 3 of 6; (dose: 60.0 mg/kg/injection, schedule: Q01DX001 (ip), vehicle: saline) 1 of 6; (dose: 75.0 mg/kg/injection, schedule: Q01DX001 (ip), vehicle: saline) 0 of 6; (dose: 150.0 mg/kg/injection, schedule: Q01DX001 (ip), vehicle: saline) 0 of 6; under setting [4], 0 of 6.

With `NC(=S)N/N=C/c1ccc[nH]1`, for the setting “dose: 400.0 mg/kg/injection, schedule: Q01DX001 (ip), vehicle: saline with Tween-80”, the survivor count is 3 of 6.

As to `c1cc2c(cc1-c1nnc(-c3ccc4c(c3)OCO4)nn1)OCO2`, the survivor count is reported as 6 of 6 (dose: 100.0 mg/kg/injection, schedule: Q01DX001 (ip), vehicle: saline with Tween-80) and 6 of 6 (dose: 200.0 mg/kg/injection, schedule: Q01DX001 (ip), vehicle: saline with Tween-80).

For `CC(C)C(=O)Nc1cccc(O)c1`, under setting [5], the survivor count is reported as 3 of 6.

`CCCCCC(=N\N=C(N)N)/C(C)=N/N=C(N)N`: the survivor count by setting is: (dose: 3.75 mg/kg/injection, schedule: Q01DX Z (ip), vehicle: saline) 6 of 6; (dose: 60.0 mg/kg/injection, schedule: Q01DX Z (ip), vehicle: saline) 3 of 6; (dose: 120.0 mg/kg/injection, schedule: Q01DX Z (ip), vehicle: saline) 0 of 6.

Take `COC(=O)N/N=C/c1c[nH]c2ccccc12`: the survivor count under setting [8] is listed as 1 of 6.

As for `NNc1ccccc1Cl`, the survivor count (dose: 300.0 mg/kg/injection, schedule: Q01DX001 (ip), vehicle: other) is recorded as 0 of 6 and the survivor count (dose: 400.0 mg/kg/injection, schedule: Q01DX001 (ip), vehicle: carboxymethylcellulose (CMC)) is 0 of 4.

For the compound `CN(C)Cc1cccc2ccccc12`, the survivor count is 0 of 3 (dose: 100.0 mg/kg/injection, schedule: Q01DX009 (ip), vehicle: Klucel (hydroxypropylcellulose) (HPC)) and 0 of 3 under setting [7].

Regarding `CC(O)C1CCCNC1` (configuration not stated), the survivor count under setting [9] is on record as 0 of 6.

`CC1(C)COP(Oc2ccccc2)OC1`: under setting [5], the survivor count is 6 of 6.

On to `CC(C)(C)NC(=O)C1CCCC(C(=O)NC(C)(C)C)C1` (configuration not stated), for which, under setting [10], the survivor count is given as 6 of 6.

On to `Cc1ccc2c(c1)[n+]([O-])c(N)c(C#N)[n+]2[O-]`, for which the survivor count under setting [6] is listed as 1 of 3.

With `COC(=O)CCNc1c(OC)ccc2ccccc12`, the survivor count under setting [7] is given as 6 of 6.

On to `CCN(CC)CCC(CCN(CC)CC)(CNC(=O)CN(CC)CC)c1cccc2ccccc12`, for which the survivor count reads like this: under setting [10], 2 of 6; (dose: 200.0 mg/kg/injection, schedule: Q04DX003 (ip), vehicle: saline) 0 of 6; under setting [9], 1 of 6.

Turning to `CCCCNC(C)[C@]1(O)Cc2c(O)c3c(c(O)c2[C@@H](OC2CC(N)C(O)C(C)O2)C1)C(=O)c1c(OC)cccc1C3=O` (some centres not stated), the survivor count was 6 of 6 (dose: 12.5 mg/kg/injection, schedule: Q01DX009 (ip), vehicle: water) and 5 of 6 (dose: 25.0 mg/kg/injection, schedule: Q01DX009 (ip), vehicle: water).

With `c1ccc([P+](c2ccccc2)(c2ccccc2)c2ccc([P+](c3ccccc3)(c3ccccc3)c3ccccc3)c3ccccc23)cc1`, the T/C (dose: 1.56 mg/kg/injection, schedule: Q04DX003 (ip), vehicle: Klucel (hydroxypropylcellulose) (HPC)) was 135 % of control. In addition, the survivor count is listed as 0 of 6 (dose: 12.5 mg/kg/injection, schedule: Q04DX003 (ip), vehicle: Klucel (hydroxypropylcellulose) (HPC)); 0 of 6 (dose: 25.0 mg/kg/injection, schedule: Q04DX003 (ip), vehicle: Klucel (hydroxypropylcellulose) (HPC)); 0 of 6 (dose: 50.0 mg/kg/injection, schedule: Q04DX003 (ip), vehicle: Klucel (hydroxypropylcellulose) (HPC)); 0 of 6 (dose: 100.0 mg/kg/injection, schedule: Q04DX003 (ip), vehicle: Klucel (hydroxypropylcellulose) (HPC)); 0 of 6 (dose: 200.0 mg/kg/injection, schedule: Q04DX003 (ip), vehicle: Klucel (hydroxypropylcellulose) (HPC)); 0 of 6 under setting [2].
